Experimental data taken from article PMC8463586.

Columns and labels:
Assay in all cases: co-IP; 293T cells transfected with the tagged constructs, harvested two days later; IP with mouse anti-Flag or mouse anti-Myc, immunoblot
[1] = target: T1, Flag-Diap1 (Drosophila IAP-1) (Drosophila) (UniProt Q24306)
T1 sequence: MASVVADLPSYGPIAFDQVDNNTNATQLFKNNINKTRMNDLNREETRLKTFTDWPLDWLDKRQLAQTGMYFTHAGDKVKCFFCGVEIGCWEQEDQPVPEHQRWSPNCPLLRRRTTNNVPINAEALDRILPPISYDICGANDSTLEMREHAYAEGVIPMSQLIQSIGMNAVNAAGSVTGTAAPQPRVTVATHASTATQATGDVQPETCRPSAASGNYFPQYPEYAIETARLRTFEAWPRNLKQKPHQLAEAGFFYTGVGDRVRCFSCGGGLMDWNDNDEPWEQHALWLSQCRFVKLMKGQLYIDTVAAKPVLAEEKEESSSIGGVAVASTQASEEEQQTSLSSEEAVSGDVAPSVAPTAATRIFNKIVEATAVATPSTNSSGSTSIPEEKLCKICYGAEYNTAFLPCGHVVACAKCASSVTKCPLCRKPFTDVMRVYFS

[2] = target: Flag-Rdx (Roadkill, E3 ubiquitin ligase) (Drosophila)
[3] = target: Myc-Rdx-BTB (aa180-374) (Drosophila)
[4] = target: Myc-Rdx-MATH (aa1-179) (Drosophila)

**Q.** Which binding [1] does the source give for “Myc-Rdx-MATH (aa1-179) (Drosophila) (domain or fragment)” here?
**A.** binds

**Q.** How did the binding [1] turn out when “Myc-Rdx-BTB (aa180-374) (Drosophila) (domain or fragment)” was run?
**A.** no binding

B1: Myc-Diap1 (Drosophila IAP-1) (protein, UniProt Q24306 1-438)
chain: MASVVADLPSYGPIAFDQVDNNTNATQLFKNNINKTRMNDLNREETRLKTFTDWPLDWLDKRQLAQTGMYFTHAGDKVKCFFCGVEIGCWEQEDQPVPEHQRWSPNCPLLRRRTTNNVPINAEALDRILPPISYDICGANDSTLEMREHAYAEGVIPMSQLIQSIGMNAVNAAGSVTGTAAPQPRVTVATHASTATQATGDVQPETCRPSAASGNYFPQYPEYAIETARLRTFEAWPRNLKQKPHQLAEAGFFYTGVGDRVRCFSCGGGLMDWNDNDEPWEQHALWLSQCRFVKLMKGQLYIDTVAAKPVLAEEKEESSSIGGVAVASTQASEEEQQTSLSSEEAVSGDVAPSVAPTAATRIFNKIVEATAVATPSTNSSGSTSIPEEKLCKICYGAEYNTAFLPCGHVVACAKCASSVTKCPLCRKPFTDVMRVYFS
**Q.** With B1 as the molecule, how does the binding [2] read?
**A.** binds

B2: Flag-Diap1 (Drosophila IAP-1) (protein, UniProt Q24306 1-438)
chain: MASVVADLPSYGPIAFDQVDNNTNATQLFKNNINKTRMNDLNREETRLKTFTDWPLDWLDKRQLAQTGMYFTHAGDKVKCFFCGVEIGCWEQEDQPVPEHQRWSPNCPLLRRRTTNNVPINAEALDRILPPISYDICGANDSTLEMREHAYAEGVIPMSQLIQSIGMNAVNAAGSVTGTAAPQPRVTVATHASTATQATGDVQPETCRPSAASGNYFPQYPEYAIETARLRTFEAWPRNLKQKPHQLAEAGFFYTGVGDRVRCFSCGGGLMDWNDNDEPWEQHALWLSQCRFVKLMKGQLYIDTVAAKPVLAEEKEESSSIGGVAVASTQASEEEQQTSLSSEEAVSGDVAPSVAPTAATRIFNKIVEATAVATPSTNSSGSTSIPEEKLCKICYGAEYNTAFLPCGHVVACAKCASSVTKCPLCRKPFTDVMRVYFS
**Q.** B2 was tested. Which binding [3] did it give?
**A.** no binding

**Q.** And the binding [4]?
**A.** binds

These are yes or no findings as the source states them, for the method shown. Binding seen in cells or lysates may run through a third protein. For some assays here: A result given as binding can be weak or reduced; the word gives no strength. Sequences can lack the tags named with a protein.
